For at least one entry, the source does not settle the construct or the ends of the probe. At least one result comes from cells or an extract, where the contact may be indirect. For some assays here: A weaker result is weaker than the reference pair of the same experiment. At least one verdict was read from the data and is not stated in words by the source. For some assays here: Where a protein sequence is shown, tags need not be part of it. For some assays here: Whether high values mean tight binding is not given here for every scale.
Assays:
Test in all cases: pull-down MS
[1] = target: PARP-1 (Homo sapiens (Raji)) (UniProt P09874); conditions: Raji nuclear extract; 5' biotin on sense strand; DNA immobilised on streptavidin beads in 20 mM Tris-HCl pH 8.0, 200 mM NaCl, 0.5 mM EDTA, 0.03% NP40; protein in an extract
[2] = target: THAP11 (Homo sapiens (Raji, Molt4)) (UniProt Q96EK4); conditions: Raji nuclear extract; 5' biotin on sense strand; DNA immobilised on streptavidin beads in 20 mM Tris-HCl pH 8.0, 200 mM NaCl, 0.5 mM EDTA, 0.03% NP40; protein in an extract
[3] = target: T1, NFKB1 (NF-kappa B p105/p50) (Homo sapiens (Raji, Molt4, HEK293)) (UniProt P19838); conditions: Raji nuclear extract, 5' biotin on sense strand, DNA immobilised on streptavidin beads in 20 mM Tris-HCl pH 8.0, 200 mM NaCl, 0.5 mM EDTA, 0.03% NP40, protein in an extract
T1 sequence (looked up, limits assumed): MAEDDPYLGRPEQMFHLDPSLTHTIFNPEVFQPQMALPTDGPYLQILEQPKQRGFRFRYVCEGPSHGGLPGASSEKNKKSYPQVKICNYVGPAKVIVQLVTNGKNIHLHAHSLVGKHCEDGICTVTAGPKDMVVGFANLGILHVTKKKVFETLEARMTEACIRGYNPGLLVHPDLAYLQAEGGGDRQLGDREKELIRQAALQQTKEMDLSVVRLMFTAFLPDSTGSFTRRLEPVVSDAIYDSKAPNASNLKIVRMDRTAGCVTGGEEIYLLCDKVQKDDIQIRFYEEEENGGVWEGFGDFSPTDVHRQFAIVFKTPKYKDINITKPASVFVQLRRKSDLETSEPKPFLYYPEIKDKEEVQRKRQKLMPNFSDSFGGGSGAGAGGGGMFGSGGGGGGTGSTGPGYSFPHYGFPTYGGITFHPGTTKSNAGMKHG

Chains of the proteins cited; added tags and fusions are not shown. Lines headed by an entry give the natural chain unless they say otherwise; changes in a name come on top. Residues count along the entry.
UniProt P09874, 2-1014: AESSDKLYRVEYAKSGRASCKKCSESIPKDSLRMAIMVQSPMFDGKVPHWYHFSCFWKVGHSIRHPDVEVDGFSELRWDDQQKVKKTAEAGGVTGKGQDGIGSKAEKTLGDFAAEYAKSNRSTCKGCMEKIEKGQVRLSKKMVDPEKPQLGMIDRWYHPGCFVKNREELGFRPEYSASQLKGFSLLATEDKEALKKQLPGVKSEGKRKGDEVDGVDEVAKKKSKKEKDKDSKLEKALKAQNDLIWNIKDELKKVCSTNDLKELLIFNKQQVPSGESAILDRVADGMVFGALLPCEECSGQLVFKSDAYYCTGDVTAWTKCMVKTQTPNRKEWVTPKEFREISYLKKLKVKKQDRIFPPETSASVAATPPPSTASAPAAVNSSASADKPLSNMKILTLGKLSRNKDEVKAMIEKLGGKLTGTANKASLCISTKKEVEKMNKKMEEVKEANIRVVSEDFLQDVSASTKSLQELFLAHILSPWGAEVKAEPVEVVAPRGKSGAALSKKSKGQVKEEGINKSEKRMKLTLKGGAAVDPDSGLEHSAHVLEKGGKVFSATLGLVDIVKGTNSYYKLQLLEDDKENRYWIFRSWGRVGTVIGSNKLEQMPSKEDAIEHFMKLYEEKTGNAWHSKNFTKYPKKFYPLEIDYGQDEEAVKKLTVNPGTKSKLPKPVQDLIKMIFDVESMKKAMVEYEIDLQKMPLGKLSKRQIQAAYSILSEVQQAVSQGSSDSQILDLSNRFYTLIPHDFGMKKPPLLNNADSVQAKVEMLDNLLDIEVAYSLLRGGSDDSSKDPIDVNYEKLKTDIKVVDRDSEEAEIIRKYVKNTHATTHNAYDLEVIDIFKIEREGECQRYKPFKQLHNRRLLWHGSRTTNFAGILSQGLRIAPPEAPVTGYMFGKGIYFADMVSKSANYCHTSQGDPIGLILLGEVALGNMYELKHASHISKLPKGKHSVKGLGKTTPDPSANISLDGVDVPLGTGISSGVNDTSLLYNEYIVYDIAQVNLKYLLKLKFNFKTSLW
UniProt Q96EK4, whole entry: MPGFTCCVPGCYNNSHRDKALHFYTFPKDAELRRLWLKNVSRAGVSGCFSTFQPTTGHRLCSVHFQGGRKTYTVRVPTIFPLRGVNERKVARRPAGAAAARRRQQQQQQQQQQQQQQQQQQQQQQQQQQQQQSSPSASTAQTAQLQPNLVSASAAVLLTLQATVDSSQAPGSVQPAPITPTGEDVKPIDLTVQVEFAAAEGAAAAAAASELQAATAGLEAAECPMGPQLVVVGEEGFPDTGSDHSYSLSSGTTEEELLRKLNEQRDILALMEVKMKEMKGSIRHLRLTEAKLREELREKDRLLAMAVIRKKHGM
UniProt Q9UKT9: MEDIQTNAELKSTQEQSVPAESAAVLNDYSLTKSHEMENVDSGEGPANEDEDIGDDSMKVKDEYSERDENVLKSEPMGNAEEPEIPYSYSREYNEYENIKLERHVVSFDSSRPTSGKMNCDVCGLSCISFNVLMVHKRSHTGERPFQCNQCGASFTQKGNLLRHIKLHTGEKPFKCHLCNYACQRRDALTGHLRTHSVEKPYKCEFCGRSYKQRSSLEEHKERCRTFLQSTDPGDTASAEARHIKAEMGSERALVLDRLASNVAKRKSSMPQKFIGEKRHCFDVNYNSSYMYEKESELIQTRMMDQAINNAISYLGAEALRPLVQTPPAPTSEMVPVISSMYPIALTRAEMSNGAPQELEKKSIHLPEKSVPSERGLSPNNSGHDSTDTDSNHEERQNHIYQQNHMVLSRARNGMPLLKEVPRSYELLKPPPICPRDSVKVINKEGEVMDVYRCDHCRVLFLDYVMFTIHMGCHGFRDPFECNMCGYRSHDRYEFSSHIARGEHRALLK
UniProt P51610: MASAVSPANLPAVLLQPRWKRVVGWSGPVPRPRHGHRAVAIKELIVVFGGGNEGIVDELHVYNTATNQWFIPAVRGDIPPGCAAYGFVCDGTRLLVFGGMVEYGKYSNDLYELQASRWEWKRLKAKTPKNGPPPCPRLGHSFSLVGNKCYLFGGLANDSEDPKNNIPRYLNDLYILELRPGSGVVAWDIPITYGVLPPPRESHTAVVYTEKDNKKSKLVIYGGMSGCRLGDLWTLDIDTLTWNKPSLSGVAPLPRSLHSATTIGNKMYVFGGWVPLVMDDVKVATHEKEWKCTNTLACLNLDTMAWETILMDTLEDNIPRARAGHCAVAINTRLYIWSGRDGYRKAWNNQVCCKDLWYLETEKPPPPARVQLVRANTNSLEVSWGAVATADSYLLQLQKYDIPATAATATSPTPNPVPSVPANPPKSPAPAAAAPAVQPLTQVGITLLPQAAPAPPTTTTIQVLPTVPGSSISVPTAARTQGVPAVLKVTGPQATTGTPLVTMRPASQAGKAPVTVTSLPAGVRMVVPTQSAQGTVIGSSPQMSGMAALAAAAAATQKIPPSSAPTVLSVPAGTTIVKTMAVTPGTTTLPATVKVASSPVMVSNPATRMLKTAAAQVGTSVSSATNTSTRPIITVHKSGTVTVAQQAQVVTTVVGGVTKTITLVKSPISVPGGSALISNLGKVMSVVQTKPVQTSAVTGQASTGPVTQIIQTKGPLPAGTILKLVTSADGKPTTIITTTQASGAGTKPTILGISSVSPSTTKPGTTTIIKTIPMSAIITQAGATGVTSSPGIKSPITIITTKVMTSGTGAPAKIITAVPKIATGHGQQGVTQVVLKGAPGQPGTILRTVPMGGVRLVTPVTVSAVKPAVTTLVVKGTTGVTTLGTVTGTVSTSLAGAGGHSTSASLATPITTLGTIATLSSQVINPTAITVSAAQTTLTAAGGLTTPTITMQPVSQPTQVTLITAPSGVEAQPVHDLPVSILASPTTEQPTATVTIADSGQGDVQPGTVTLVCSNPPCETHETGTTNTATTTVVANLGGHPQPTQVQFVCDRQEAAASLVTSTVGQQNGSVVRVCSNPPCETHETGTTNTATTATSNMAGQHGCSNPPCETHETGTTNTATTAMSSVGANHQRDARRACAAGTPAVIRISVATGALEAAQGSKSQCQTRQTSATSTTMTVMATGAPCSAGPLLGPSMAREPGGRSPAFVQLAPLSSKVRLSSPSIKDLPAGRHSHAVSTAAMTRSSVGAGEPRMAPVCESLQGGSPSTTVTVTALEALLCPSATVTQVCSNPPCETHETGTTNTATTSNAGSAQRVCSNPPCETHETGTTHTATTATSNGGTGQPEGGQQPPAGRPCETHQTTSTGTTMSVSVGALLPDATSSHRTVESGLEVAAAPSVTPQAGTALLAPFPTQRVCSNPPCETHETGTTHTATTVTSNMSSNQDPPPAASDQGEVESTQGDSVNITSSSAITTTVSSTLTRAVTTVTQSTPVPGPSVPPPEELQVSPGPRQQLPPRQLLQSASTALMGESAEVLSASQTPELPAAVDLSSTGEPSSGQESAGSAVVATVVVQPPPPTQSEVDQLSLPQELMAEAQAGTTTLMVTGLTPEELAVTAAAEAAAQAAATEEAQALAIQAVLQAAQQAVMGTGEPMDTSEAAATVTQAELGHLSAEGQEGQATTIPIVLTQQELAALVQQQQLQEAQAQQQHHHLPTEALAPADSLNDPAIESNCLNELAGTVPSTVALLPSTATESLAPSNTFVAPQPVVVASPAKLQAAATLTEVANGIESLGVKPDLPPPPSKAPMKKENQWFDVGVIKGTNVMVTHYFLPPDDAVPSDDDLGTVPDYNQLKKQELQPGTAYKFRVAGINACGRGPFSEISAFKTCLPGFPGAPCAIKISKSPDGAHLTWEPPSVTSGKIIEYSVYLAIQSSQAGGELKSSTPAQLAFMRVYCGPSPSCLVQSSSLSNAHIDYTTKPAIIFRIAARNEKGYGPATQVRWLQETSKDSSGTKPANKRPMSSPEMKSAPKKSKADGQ
UniProt Q9UKS7: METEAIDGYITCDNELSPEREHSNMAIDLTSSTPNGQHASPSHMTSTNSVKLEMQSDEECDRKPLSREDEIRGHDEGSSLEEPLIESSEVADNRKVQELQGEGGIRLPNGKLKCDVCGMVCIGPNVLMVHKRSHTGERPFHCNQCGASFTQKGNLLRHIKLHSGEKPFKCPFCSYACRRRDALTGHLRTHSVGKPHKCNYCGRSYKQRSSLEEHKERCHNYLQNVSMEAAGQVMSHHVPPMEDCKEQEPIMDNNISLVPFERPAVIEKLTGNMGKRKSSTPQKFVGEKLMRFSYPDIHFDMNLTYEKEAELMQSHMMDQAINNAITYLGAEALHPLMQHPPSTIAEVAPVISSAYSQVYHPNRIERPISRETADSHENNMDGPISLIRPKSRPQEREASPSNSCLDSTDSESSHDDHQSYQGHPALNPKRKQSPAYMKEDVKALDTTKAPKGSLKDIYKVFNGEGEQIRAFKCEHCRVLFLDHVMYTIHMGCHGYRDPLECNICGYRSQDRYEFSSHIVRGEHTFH

[4] = target: NFKB2 (NF-kappa B p100/p52) (Homo sapiens (Raji)) (UniProt Q00653); conditions: Raji nuclear extract; 5' biotin on sense strand; DNA immobilised on streptavidin beads in 20 mM Tris-HCl pH 8.0, 200 mM NaCl, 0.5 mM EDTA, 0.03% NP40; protein in an extract
[5] = target: Aiolos (Homo sapiens (Raji)) (UniProt Q9UKT9); conditions: Raji nuclear extract; 5' biotin on sense strand; DNA immobilised on streptavidin beads in 20 mM Tris-HCl pH 8.0, 200 mM NaCl, 0.5 mM EDTA, 0.03% NP40; protein in an extract
[6] = target: HCF-1 (Homo sapiens (Raji, Molt4)) (UniProt P51610); conditions: Raji nuclear extract; 5' biotin on sense strand; DNA immobilised on streptavidin beads in 20 mM Tris-HCl pH 8.0, 200 mM NaCl, 0.5 mM EDTA, 0.03% NP40; protein in an extract
[7] = target: Ikaros (Homo sapiens (Raji, Molt4 nuclear extract)) (UniProt Q13422); conditions: 5' biotin on sense strand, DNA immobilised on streptavidin beads in 20 mM Tris-HCl pH 8.0, 200 mM NaCl, 0.5 mM EDTA, 0.03% NP40, protein in an extract
[8] = target: Helios (Homo sapiens (Raji)) (UniProt Q9UKS7); conditions: Raji nuclear extract; 5' biotin on sense strand; DNA immobilised on streptavidin beads in 20 mM Tris-HCl pH 8.0, 200 mM NaCl, 0.5 mM EDTA, 0.03% NP40; protein in an extract

Row | Sequence | binding signal (SILAC ratio WT/MT) [1] | binding signal (SILAC ratio WT/MT) [2] | binding signal (SILAC ratio WT/MT) ([3]; indirect) | binding result [4] | binding result [1] | binding result [5] | binding result [6] | binding result [2] | binding result [3] | binding result [7] | binding result [8]
1 | CAAAACTGCAGGCAACTAGAACTACATTTCCCGGCGTGATTTGCTGCGGAACGAACTACATCTCCCGGCAGGCTGCG (double strand) [Tandem M4 WT] | 1 | 11 | 19 | – | – | – | – | – | – | – | –
2 | CAAAACTGCAGGCAACTAGACATCAATTTCTGGGCGTGATTTGCTGCGGAACGACATCAATCTCTGGGCAGGCTGCG (double strand) [Tandem M4 MT] | – | – | – | binds more weakly | binds | binds more weakly | binds more weakly | binds more weakly | binds more weakly | binds more weakly | binds more weakly

From paper PMC5006282
